Test results reported in paper PMC7520452.
Residue numbers refer to the chain shown, from its start. These are yes or no findings as the source states them, for the method shown. Binding seen in cells or lysates may run through a third protein. Some binding calls cover weakened binding; strength is not graded here. For part of these data: Sequences can lack the tags named with a protein.

By UniProt entry, the sequences of proteins in these tests, tags left out.
UniProt Q9UM11: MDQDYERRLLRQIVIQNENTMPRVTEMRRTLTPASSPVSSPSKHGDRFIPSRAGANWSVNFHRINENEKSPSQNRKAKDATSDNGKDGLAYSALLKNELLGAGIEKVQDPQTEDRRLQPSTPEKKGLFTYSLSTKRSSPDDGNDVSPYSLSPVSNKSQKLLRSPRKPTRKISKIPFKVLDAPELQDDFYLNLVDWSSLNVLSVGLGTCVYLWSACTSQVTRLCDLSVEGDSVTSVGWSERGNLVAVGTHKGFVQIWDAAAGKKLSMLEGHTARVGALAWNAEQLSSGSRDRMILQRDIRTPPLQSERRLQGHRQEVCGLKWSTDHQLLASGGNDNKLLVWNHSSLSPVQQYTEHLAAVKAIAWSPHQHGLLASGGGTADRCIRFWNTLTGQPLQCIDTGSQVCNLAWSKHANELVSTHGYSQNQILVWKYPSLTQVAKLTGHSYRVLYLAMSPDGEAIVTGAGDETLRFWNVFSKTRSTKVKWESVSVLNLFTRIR

Legend:
[1] = target: T1, GST-tagged wild-type (WT) borealin (human) (UniProt Q53HL2); assay: pull-down; GST-tagged borealin on glutathione resin (GST SpinTrap) incubated with 15 µl IVT Cdh1 for 2 h at 4°C in binding buffer (10 mM Tris-HCl pH 7.6, 150 mM NaCl, 0.5 mM EDTA, 10 mM NaF, 0.1% Nonidet P-40); eluate blotted with anti-Cdh1; only the target purified
T1 sequence: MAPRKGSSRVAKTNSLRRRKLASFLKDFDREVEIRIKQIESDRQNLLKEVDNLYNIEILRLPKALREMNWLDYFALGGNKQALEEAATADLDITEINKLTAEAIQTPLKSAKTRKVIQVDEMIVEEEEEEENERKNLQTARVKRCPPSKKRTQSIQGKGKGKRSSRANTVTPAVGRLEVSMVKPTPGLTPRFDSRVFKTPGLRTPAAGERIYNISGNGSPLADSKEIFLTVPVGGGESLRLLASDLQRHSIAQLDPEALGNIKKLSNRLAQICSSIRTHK

[2] = target: T2, FLAG-tagged borealin W70E/F74E mutant (human) (UniProt Q53HL2); assay: co-IP; borealin deletion and point mutants with Cdh1 (Fig. S3B, Fig. S4C); legends not shown
T2 sequence: T1 sequence with W70E, F74E

[3] = target: T3, borealin Δ18–39 mutant (human) (UniProt Q53HL2); assay: as above
T3 sequence: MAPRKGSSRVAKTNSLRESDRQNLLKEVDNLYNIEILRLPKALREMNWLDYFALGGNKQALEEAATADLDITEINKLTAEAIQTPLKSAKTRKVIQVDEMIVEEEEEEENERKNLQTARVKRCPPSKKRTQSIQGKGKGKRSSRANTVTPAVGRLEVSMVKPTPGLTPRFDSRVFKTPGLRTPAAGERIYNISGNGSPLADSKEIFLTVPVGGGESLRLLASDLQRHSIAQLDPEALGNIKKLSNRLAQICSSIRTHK

[4] = target: T2, FLAG-tagged borealin W70E/F74E mutant (human); assay: co-IP; 293T cells co-transfected with FLAG-tagged borealin (WT or mutant) and HA–Cdh1, 10 µM MG132 for 5 h; extracts immunoprecipitated with monoclonal antibody against FLAG, immunoblotting
[5] = target: T4, FLAG-tagged wild-type (WT) borealin (human) (UniProt Q53HL2); assay: as above
T4 sequence: T1 sequence

[6] = target: T5, FLAG-tagged borealin 5E mutant (L21E/F24E/L25E/F28E/V32E) (human) (UniProt Q53HL2); assay: as above
T5 sequence: T1 sequence with L21E, F24E, L25E, F28E, V32E

Measured: binding

in vitro translated (IVT) Cdh1 (from UniProt Q9UM11 1-496)
binds: [1]

HA-tagged Cdh1 (from UniProt Q9UM11 1-496)
not listed: [1]
binds: all other assays above
